Reference: US11344601B2, “Tumor microenvironment-related target TAK1 and application thereof in inhibition of tumor” (Shanghai Institutes for Biological Sciences, Chinese …, priority 2017, dated 2022)
At least one compound was matched to its structure with a doubt left.

Assays:
IL-8 = IL-8 protein expression of damaged stromal cells (Western blot, ELISA); assay type: cell-based, human; conditions: ELISA of extracellular fluid, bleomycin plus inhibitor
Method: FIG. 15. The stromal cells were collected on Day 7 after bleomycin and/or 5Z-7 treatment. The lysates were analyzed by Western blot for their phosphorylation levels of ATM and TAK1, and activation of TAK1 downstream substrate JN K and p38. IL-8, a chemokine was used as a marker secreted factor of SASP, whose expression level was simultaneously analyzed. FIG. 33. The extracellular fluid released by each group of cells were tested by ELISA to determine the protein expression level of the secreted factor IL-8.

NF-κB complex = experiment: NF-κB activation in bleomycin-treated stromal cells (nuclear translocation, luciferase reporter); assay type: cell-based, human; conditions: bleomycin plus inhibitor
Method: FIG. 22. The stromal cells pre-transduced with the NF-κB transcriptional luciferase reporter vector were treated with bleomycin and/or RAD001. The cells were collected on Day 7 and detected for the fluorescence signal intensity of the reporter vector.
FIG. 32. Detection of NF-kB transcriptional activity based on the reporter vector. Stromal cells were treated with bleomycin along with the PI3K small molecule inhibitor LY294002 (1 μM), Akt inhibitor MK-2206 (100 nM), mTOR inhibitor RAD001 (50 nM), p38 inhibitor SB203580 (10 μM) and TAK1 inhibitor 5Z-7 (500 nM), respectively, and cell lysates were used for determining luciferase activity.
The […] vector pBABE-puro-IκBα-mut (Super repressor) containing two phosphorylated mutant sites of IKK at S32A and S34A on the IκBα protein encoding sequence were used for transfection of lentivirus-packing cell line phoenix. Lentiviruses were subsequently used to infect PSC27 stromal cell line, whereas 1 μg/ml puromycin was used to screen positive clones. As another method, 5 μm of the small molecule inhibitor Bay11-7082 (purchased from Selleck) was used for NF-κB activity control. Stromal cells were subsequently exposed to several different forms of cytotoxicity, with the resulting phenotype recorded in time, and the relevant gene expression analyzed. […]

O=c1cc(N2CCOCC2)oc2c(-c3ccccc3)cccc12 [LY294002]
chemokine IL-8 protein levels induced by DNA damage (IL-8): significantly reduced
NF-κB transcriptional activity (reporter vector) (NF-κB complex): significantly reduced
